PubChem BioAssay AID743454 – Peter MacCallum Cancer Centre – 2014
Purpose: 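Genes whose loss kills vorinostat-resistant colon cancer cells under vorinostat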 (primary screen). Cells: human HCT116-VR colon cancer cells, selected for vorinostat resistance. Knock-down reagent: siRNA pool against human genes, 40 nM siRNA pool. Time to read-out: vorinostat for 24 h, read-out about 72 h after transfection. Challenge: vorinostat at 2.5 µM final. Measured: 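Cell viability by CellTiter-Fluor and caspase 3/7 activity by luminescence, each scaled to mock wells per plate, duplicates averaged, then robust z-scored over all plates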. Scale: viability robust z-score: higher = more viable cells than screen typical; caspase robust z-score: higher = more caspase 3/7 activity than screen typical. Hit rule: 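a knock-down is a hit when classed RV1 or RV2 for lowered viability, or CA1 or CA2 for caspase activation; those lethal without drug were dropped; hits were retested singly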.
The deposit covers about 18,000 reagents; shown is a part drawn at random. Of all reagents, 450 (2.5%) were called active. 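Single biological run; no consistent viability z cut-off exists, so the class columns, not z-scores, define the calls.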 Reagent sequences are not shown.

Knock-down of HNRNPA2B1 (GeneID 3181) came out at: viability hit class no change; caspase hit class no change; viability robust z-score -1.43; caspase robust z-score -0.89; inactive.
Depletion of OR2T11 (GeneID 127077) resulted in: viability hit class no change; caspase hit class no change; viability robust z-score -1.16; caspase robust z-score -0.12; inactive.
After knock-down of IFT56 (GeneID 79989) the results were viability hit class no change; caspase hit class no change; viability robust z-score 0.81; caspase robust z-score 0.11; inactive.
After knock-down of MAPKAPK5 (GeneID 8550), the screen gave viability hit class no change; caspase hit class no change; viability robust z-score 0.28; caspase robust z-score -0.3; inactive.
Knock-down of RPL7A (GeneID 6130) resulted in: viability hit class no change; caspase hit class no change; viability robust z-score -4.7; caspase robust z-score -0.58; inactive.

Laid out differently: entries from further up.
{"gene symbol":"IFT56 (GeneID 79989)","viability hit class":"no change","caspase hit class":"no change","viability robust z-score":0.81,"caspase robust z-score":0.11,"outcome":"inactive"}
{"gene symbol":"MAPKAPK5 (GeneID 8550)","viability hit class":"no change","caspase hit class":"no change","viability robust z-score":0.28,"caspase robust z-score":-0.3,"outcome":"inactive"}

Further entries follow:
For GRM3 (GeneID 2913) the deposit lists viability hit class no change; caspase hit class no change; viability robust z-score 1.16; caspase robust z-score -0.66; inactive.
Against OR10P1 (GeneID 121130), the entry reads viability hit class no change; caspase hit class no change; viability robust z-score -0.57; caspase robust z-score -0.82; inactive.
Against GALNT10 (GeneID 55568) the deposit lists viability hit class no change; caspase hit class no change; viability robust z-score -2.82; caspase robust z-score 3.68; inactive.
For LIAT1 (GeneID 400566), the entry reads viability hit class no change; caspase hit class no change; viability robust z-score 0.34; caspase robust z-score 0.7; inactive.
Knock-down of OSGIN2 (GeneID 734) gave: viability hit class no change; caspase hit class no change; viability robust z-score 0.39; caspase robust z-score 0.26; inactive.
Silencing of CWF19L2 (GeneID 143884) gave: viability hit class no change; caspase hit class no change; viability robust z-score 0.34; caspase robust z-score -0.92; inactive.
BAGE (GeneID 574) scored viability hit class no change; caspase hit class no change; viability robust z-score 1; caspase robust z-score -0.97; inactive.
